Results from patent US20110129457A1.
Results are given in words; binding and its absence hold for the method and conditions named. Some binding calls cover weakened binding; strength is not graded here.

Sequences of proteins named here, by UniProt entry; tags and fusion partners are left off. A change or cut given only in a name is not applied to a line headed by its entry. A line that says so, or that is headed by a name, gives the form on record, which may keep a tag or linker. Residues count along the entry.
Shh-Flag (human Shh residues 25-197 with C-terminal Flag-Tag) (Q15465, form named): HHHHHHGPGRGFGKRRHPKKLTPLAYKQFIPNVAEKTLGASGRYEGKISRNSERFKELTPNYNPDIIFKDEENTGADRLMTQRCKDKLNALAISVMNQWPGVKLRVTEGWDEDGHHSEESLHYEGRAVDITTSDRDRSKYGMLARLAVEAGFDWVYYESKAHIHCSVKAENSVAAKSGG

Assays:
[1] = molecular target: Shh-Flag (human Shh residues 25-197 with C-terminal Flag-Tag) (human) (UniProt Q15465); assay: competition ELISA: Shh-Flag captured on anti-Flag M2; Hip-L2 peptide against 800 nM His-tagged Hhip protein (Hhip1β12 in paragraph 608, Hipβ1 in paragraph 609), detected with anti-His-HRP
[2] = molecular target: Shh-Flag (human Shh residues 25-197 with C-terminal Flag-Tag) (human) (UniProt Q15465); assay: competition ELISA on Shh-Flag

binding [1] | binding [2] | Binder
binds | – | GDGMITLDDMEEMDGLSDFTG [Hip-L2 peptide (…) of the competition ELISA]
– | binds | GCQLTKQRLVDADGIINPCG (disulfide-containing cyclic peptide) [Ptch L2 peptide, disulfide-containing cyclic (…)]
